The values that follow come from PMC3285215.

For assay [1], the target named is CsPCBP, poly(C)-binding protein with a KH domain (two-hybrid fusion) (Citrus sinensis (sweet orange)) (UniProt G9I825). The assay can be described thus: two-hybrid; baits in pOBD (GAL4-BD) and full-length preys in pOAD (GAL4-AD); SC -Trp -Leu -His -Ade with 5 mM 3AT, 5 days at 30°C.
Assay [2] deals with CsPABP2, poly(A)-binding protein (two-hybrid fusion) (Citrus sinensis (sweet orange)) (UniProt G9I828). The assay is described as above.
The target in assay [3] is PthA3 fused to the GAL4-BD domain (Xanthomonas citri). Described as above.
Assay [4] concerns the target CsPABP1, poly(A)-binding protein (two-hybrid fusion) (Citrus sinensis (sweet orange)) (UniProt G3LUH8). The description is as above.
The target in assay [5] is PthA1 fused to the GAL4-BD domain (Xanthomonas citri). The description is as above.
In assay [6] the target is GST-CsTRAX (Citrus sinensis (sweet orange)) (UniProt G9I826). The assay can be described thus: pull-down; GST or GST fusions immobilized on glutathione resin; about 50 µg of purified 6xHis-tagged protein, 2 h at 4°C; four PBS washes, elution with reduced glutathione; Western blot; both purified. A general note: Immunoblotting shows a protein as a band on a membrane.
The target in assay [7] is GST-CsSMC (Citrus sinensis (sweet orange)) (UniProt G9I822). The assay is described as above.
In assay [8] the target is GST-CsHMG (Citrus sinensis (sweet orange)) (UniProt G9I829). Described as above.
For assay [9], the target named is GST-CsHAP3 (Citrus sinensis (sweet orange)) (UniProt G9I824). The description is as above.
The target in assay [10] is CsVIP2, VirE2-interacting protein (two-hybrid fusion) (Citrus sinensis (sweet orange)) (UniProt G9I827). The assay can be described thus: two-hybrid; baits in pOBD (GAL4-BD) and full-length preys in pOAD (GAL4-AD); SC -Trp -Leu -His -Ade with 5 mM 3AT, 5 days at 30°C.
In assay [11] the target is CsSMC, structural maintenance of chromosomes domain-containing protein (two-hybrid fusion) (Citrus sinensis (sweet orange)) (UniProt G9I822). Described as above.
The target in assay [12] is CsTRAX, translin-associated factor X (two-hybrid fusion) (Citrus sinensis (sweet orange)) (UniProt G9I826). The description is as above.

No constants are given. Whether binding was seen depends on the method and setting. A result given as binding can be weak or reduced; the word gives no strength.

With “CsVIP2, VirE2-interacting protein (two-hybrid fusion) (from UniProt G9I827)”, the binding entry in [1] and in [2] was “binds” throughout.
“CsHAP3, homolog of the OsHAP3A transcriptional factor (two-hybrid fusion) (from UniProt G9I824)”: the binding result in [3] was “binds”.
Turning to “CsHMG, high-mobility group protein (two-hybrid fusion) (from UniProt G9I829)”, the binding result is reported as “binds” in [3], “binds weakly” in assay [4], “binds weakly” in [2] and “binds” in assay [5].
For “CsPCBP, poly(C)-binding protein with a KH domain (two-hybrid fusion) (from UniProt G9I825)”, the binding result in [3] was “binds”.
In the case of “6xHis-PthA3 (from UniProt A0AAI7ZJD8 1-1096)”, the binding entry in assay [6], in assay [7], in [8] and in assay [9] was “binds” each time.
In the case of “CsPABP2, poly(A)-binding protein (two-hybrid fusion) (from UniProt G9I828)”, the binding entry in assay [3], in assay [10] and in assay [11] was “binds” each time.
For the substance “CsPABP1, poly(A)-binding protein (two-hybrid fusion) (from UniProt G3LUH8)”, the binding result in assay [12], in [3] and in [11] was “binds” throughout.
As to “CsSMC, structural maintenance of chromosomes domain-containing protein (two-hybrid fusion) (from UniProt G9I822)”, the binding entry in [3] is “binds”.
As to “6xHis-PthA1 (from UniProt A0AAI7ZJD3 1-1126)”, in assay [8], the binding entry is reported as “binds”.
For “CsTRAX, translin-associated factor X (two-hybrid fusion) (from UniProt G9I826)”, the binding result in [3] is recorded as “binds”.
